These are yes or no findings as the source states them, for the method shown. In cells and extracts the contact can be indirect. Some results given as binding are weak or reduced against the parent protein; the word gives no strength.
Experiments:
Myc-FOXO4 = Myc-FOXO4 (UniProt P98177); assay: co-IP; HEK293T co-transfected with Myc-FOXO4 plus HA-RUNX2 (HA-RUNX2 alone or empty vector as controls); lysed after 48 h in RIPA buffer; IP with HA Ab then Myc IB, or IP with Myc Ab then HA IB
HA-RUNX2 = HA-RUNX2 (UniProt Q13950); assay: as above

Sequences of proteins named here, by UniProt entry; tags and fusion partners are left off.
UniProt P98177: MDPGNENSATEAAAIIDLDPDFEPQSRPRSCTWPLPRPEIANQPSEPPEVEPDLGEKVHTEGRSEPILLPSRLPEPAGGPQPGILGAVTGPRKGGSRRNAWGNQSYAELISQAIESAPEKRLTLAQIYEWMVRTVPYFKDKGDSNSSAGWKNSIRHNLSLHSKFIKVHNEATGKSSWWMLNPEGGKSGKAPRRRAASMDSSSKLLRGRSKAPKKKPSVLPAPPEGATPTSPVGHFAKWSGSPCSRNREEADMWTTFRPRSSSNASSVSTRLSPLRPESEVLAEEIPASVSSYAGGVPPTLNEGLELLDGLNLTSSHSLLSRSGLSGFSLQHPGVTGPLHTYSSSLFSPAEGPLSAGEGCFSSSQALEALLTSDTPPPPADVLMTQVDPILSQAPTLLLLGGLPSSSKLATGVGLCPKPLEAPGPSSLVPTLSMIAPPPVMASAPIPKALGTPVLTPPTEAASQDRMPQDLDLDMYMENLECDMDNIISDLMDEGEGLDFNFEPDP
UniProt Q13950: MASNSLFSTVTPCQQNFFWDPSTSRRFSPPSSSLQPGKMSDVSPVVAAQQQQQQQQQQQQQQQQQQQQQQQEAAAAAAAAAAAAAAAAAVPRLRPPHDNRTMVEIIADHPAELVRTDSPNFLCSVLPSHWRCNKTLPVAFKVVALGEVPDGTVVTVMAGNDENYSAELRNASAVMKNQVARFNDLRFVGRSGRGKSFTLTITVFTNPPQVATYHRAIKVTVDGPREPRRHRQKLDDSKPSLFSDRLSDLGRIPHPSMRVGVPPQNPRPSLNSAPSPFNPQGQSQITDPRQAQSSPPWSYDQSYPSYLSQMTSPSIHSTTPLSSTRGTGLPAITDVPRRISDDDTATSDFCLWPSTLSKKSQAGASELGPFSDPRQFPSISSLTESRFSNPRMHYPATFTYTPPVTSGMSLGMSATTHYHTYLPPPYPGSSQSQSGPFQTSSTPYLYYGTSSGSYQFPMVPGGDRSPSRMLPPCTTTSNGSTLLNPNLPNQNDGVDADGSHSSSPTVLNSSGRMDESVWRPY

binding (Myc-FOXO4) | binding (HA-RUNX2) | Substance
binds |  | HA-RUNX2 (from UniProt Q13950 1-521)
 | binds | Myc-FOXO4 (from UniProt P98177 1-505)

Source: publication PMC4077825
